We go through 41 compounds from PubChem BioAssay AID493014 (National Center for Advancing Translational Sciences (NCATS), 2011).

The other results are listed elsewhere or left out. Further columns of the screen follow, without active or inactive calls. The list favours compounds with an active or inconclusive main result. Words in brackets tell the shape of the fitted curve; partial curves, single points and poor fits give uncertain potencies.

This test in a line: qHTS Assay to Find Inhibitors of Chronic Active B-Cell Receptor Signaling. The settings on record: ABC-DLBCL IkBa-CBG/CBR reporter, luminescence ratio (green luciferase fused to IkBa over red control in TMD8 lymphoma cells), 4 h; measured here: CBR red luminescence, cell number. The procedure, abridged:
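Concentration-response series (up to 46 uM) were applied to TMD8 dual-reporter cells for 4 h at 37C with doxycycline. Green/red ratio, after filter-overlap correction, defined %Activity; red signal alone was normalised to basal cells and zero luminescence.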
On to `CC(/C=C/C1[C@H](C)C[C@H](O[C@@H]2O[C@H](CO)[C@@H](O)[C@H](O)[C@H]2O)CC1(C)C)O[C@H]1O[C@H](CO)[C@@H](O)[C@H](O)[C@H]1O` (stereo partly specified), for which the AC50 is 8.2 µM [rising, partial curve]. The figure for `OC[C@@H](O)[C@H](O)C(/C=N/Nc1ccccc1)=N\Nc1ccccc1` is 0.398 µM [rising, partial curve, poor fit]; for `CCCCOC(=O)c1ccc(NC(=O)CSc2nnnn2C)cc1` it is 0.891 µM [rising, full curve, poor fit]; for `Cc1ccnc(N/C=C/C(=O)c2ccc(Br)cc2)c1` it is 7.94 µM [falling, partial curve, poor fit].

In the case of `COc1cccc(CNC(=O)c2ccc(OCC(=O)N3CCOCC3)c(OC)c2)c1`, the AC50 was 20.6 µM [rising, partial curve, poor fit]. The figure for `CC(=O)/C(=N\Nc1ccc(Cl)cc1)Sc1nnc(-c2ccccc2)n1-c1ccccc1` is 0.731 µM [rising, full curve, poor fit]; for `Cc1ccc(C(=O)OCC(=O)NCc2cccs2)c(C)c1` it is 11.2 µM [falling, partial curve, poor fit]; for `COc1ccc(/C=C/C(=O)Nc2cccc(C(C)=O)c2)cc1` it is 23.1 µM [falling, single point]. For `COc1ccc(C(CNc2ncnc3sc(C)c(C)c23)N(C)C)cc1` (stereo unspecified) the value was 6.31 µM [rising, single point]; for `Cc1c(NC(=O)OCCNC(=O)COc2ccc(Cl)cc2Cl)sc(=S)n1C`, 9.2 µM [rising, partial curve]; for `O=C(O)C1CCN(C(=O)COc2ccc3c(c2)oc(=O)c2ccccc23)CC1`, 10 µM [falling, partial curve]. For `CCn1cc(C(=O)N[C@@H](CCSC)C(=O)NCCCOC)c(=O)c2cc3c(cc21)OCO3` the value was 35.5 µM [rising, partial curve, poor fit]; for `Cc1nc(NC(C)C)c2cnn(CCc3ccccc3)c2n1`, 29.1 µM [falling, single point]; for `CN1C(=O)/C(=C2\SC(N3CCCCCC3)=NC2=O)c2ccccc21`, 4.11 µM [falling, single point]. With `COc1cccc(NC(=O)/C=C/c2ccco2)c1`, the half-maximal activity concentration (AC50) was 7.94 µM [falling, partial curve]. In the case of `CN1CCN(S(=O)(=O)c2ccc(N(C)Cc3ccc(C(F)(F)F)cc3)c([N+](=O)[O-])c2)CC1`, the AC50 is 23.1 µM [falling, single point]. For `COc1ccc(C(=O)Nc2cc(Cl)ccc2OC(=O)c2ccc(OC)cc2)cc1` the value was 0.141 µM [rising, full curve, poor fit].

For `O=C(NCCCn1ccnc1)c1cccc(S(=O)(=O)N2CCCCCC2)c1`, the AC50 was 16.4 µM [rising, single point].

In the case of `O=C(CCl)Nc1ccccc1C(=O)NCc1ccccc1`, the AC50 is 25.1 µM [falling, single point]. For `Cc1ccc(Sc2ncccc2C(=O)NCC(c2ccc(F)cc2)N2CCOCC2)c(C)c1` (stereo unspecified) the value was 23.1 µM [rising, single point]; for `O=C(CN1C(=O)NC2(CCCCC2)C1=O)Nc1ccc(F)cc1`, 15.8 µM [falling, partial curve]; for `CCc1ccc2nc(N3CCN(C)CC3)c(C#N)cc2c1`, 3.16 µM [rising, full curve, poor fit]. For `Cc1c(NC(=O)c2ccc(=O)oc2)c(=O)n(-c2ccccc2)n1C`, the AC50 is 29.1 µM [rising, partial curve, poor fit].

`CCN(CC)CC#CCC(O)(c1ccccc1)C1CCCC1` (stereo unspecified): the AC50 is 0.461 µM [falling, full curve, poor fit]. Consider `CCN(CC)S(=O)(=O)c1cccc(C(=O)N/N=C/c2cccc(O)c2O)c1`, for which the AC50 was 23.1 µM [falling, single point]. As to `O=C(CCN1C(=O)/C(=C\c2cccs2)SC1=S)Nc1nccs1`, the AC50 is 29.1 µM [falling, single point]. For `CCCCNC(=O)C1CCN(c2nc(C)cc(C)n2)CC1` the value was 2.51 µM [rising, partial curve, poor fit]; for `Brc1ccccc1-c1nc(-c2ccccc2)no1`, 2.59 µM [rising, partial curve]. For `O=C1c2c([N+](=O)[O-])cc([N+](=O)[O-])cc2S(=O)N1Cc1ccccc1` (stereo unspecified) the value was 15.8 µM [rising, single point].

Turning to `Cc1noc(C)c1C(=O)Nc1ccc(Cl)cc1C(F)(F)F`, the AC50 was 5.62 µM [falling, single point]. The figure for `O=C(N/N=C/C=C/c1ccccc1[N+](=O)[O-])c1cccs1` is 23.1 µM [falling, partial curve]; for `Cc1csc(CCc2nc(C)cs2)n1` it is 0.731 µM [falling, partial curve, poor fit].

Consider `COc1ccc(OC)c(CNc2ccc3c(c2)CCC3)c1`, for which the AC50 was 11.2 µM [rising, single point].

Regarding `NC(=O)CC(NC(=O)c1cccc(Br)c1)c1ccc(N2CCCCCC2)c([N+](=O)[O-])c1` (stereo unspecified), the AC50 is 22.4 µM [falling, single point].

For the compound `CCCCOc1ccc(CSCCNC(=S)Nc2ccccc2)cc1`, the AC50 is 7.31 µM [rising, partial curve].

Turning to `CCOc1ccc(NC(=O)c2cc(S(=O)(=O)N3CCc4ccccc43)ccc2F)cc1`, the AC50 is 4.47 µM [falling, full curve, poor fit]. For `COc1ccccc1Nc1n[nH]c(=S)s1` the value was 10 µM [falling, partial curve, poor fit]; for `O=C(Nc1ccc2c(c1)OCCO2)c1ccc2nccnc2c1`, 11.2 µM [falling, partial curve]; for `CC(C)c1ccc(NC(=O)c2cc(S(=O)(=O)N(C)C3CCCCC3)ccc2F)cc1`, 14.1 µM [rising, partial curve, poor fit]. The figure for `COc1cccc(C(=O)N/N=c2\sc3ccccc3n2C)c1` is 6.51 µM [falling, partial curve]; for `CCSc1nnc(C)c2ccccc12` it is 1.12 µM [rising, full curve, poor fit].
